The whole screen tested about 300,000 compounds, of which about 5,400 (1.8%) were called active. The inconclusive results got no clear call from the source; some entries with a clear call stand among them for comparison. The call rests on the fitted dose curve; tested in HEK293 cells. A potency beside an inconclusive call is a rough fit, not a confirmed value.
test: qHTS for inhibitors of binding or entry into cells for Marburg Virus; conditions: Marburg virus pseudotyped entry inhibition, cell reporter; activity change, negative = inhibition: at 37.8 µM (top of the series) unless noted
On the % scale 0 is the no-effect control and ±100 the full control effect; potency means the concentration at half of the fitted maximal effect.

SMILES	activity change, negative = inhibition	Potency
CCOc1ccccc1NC(=O)N1CCC(NC(=O)c2cccc(C)c2)CC1	inactive: -4.22%	–
COc1ccc(-n2nc3cc(C)c(NC(=S)NC(=O)c4ccccc4C)cc3n2)cc1	–	inconclusive: 29.1 µM [inhibitor, single point]
CCOC(=O)N1CCN(C(=O)C2CCCN(S(=O)(=O)c3ccc(OCC)cc3)C2)CC1 (centres undefined)	–	inconclusive: 1.58 µM [inhibitor, full curve, poor fit]
Cc1ccc(O)c(C2=NNC(O)(C(F)(F)F)C2)c1 (centres undefined)	inactive: -12.3%	–
Cn1c(NCCO)nc2c1c(=O)n(Cc1ccc(F)cc1)c(=O)n2C	inactive: 7.72%	–
Cc1ccc(-c2csc(=Nc3cccnc3)n2CCCn2ccnc2)cc1C	–	inconclusive: 10.3 µM [inhibitor, partial curve, poor fit]
Cc1ccc(C)c(CN2CCC(CNC(=O)Nc3ccc(F)c(Cl)c3)CC2)c1	–	inconclusive: 17.8 µM [inhibitor, partial curve, poor fit]
CC(=O)Nc1c(Br)cc2c(c1Br)Cc1cc(Br)ccc1-2	–	inconclusive: 31.6 µM [activator, single point]
COc1ccc(-c2onc(C)c2-c2cnn(-c3ccccc3)c2)c(O)c1C	–	inconclusive: 10 µM [inhibitor, partial curve, poor fit]
Oc1c(CN2CCOCC2)cc(CN2CCOCC2)c(O)c1CN1CCOCC1	inactive: 3.73% [at 46.1 µM]	–
CCOc1cccc(N(C(=O)Cc2cccs2)C(C(=O)NC2CCCCC2)c2cccn2C)c1 (centres undefined)	–	inconclusive: 18.3 µM [inhibitor, single point]
CCc1ccc(Nc2cc(=O)n(C3CCCCC3)c(=O)[nH]2)cc1	inactive: 3.76%	–
COc1cccc(C(=O)NC(=S)NCc2ccco2)c1	–	inconclusive: 14.6 µM [activator, single point]
CC(=O)Nc1ccc2nc(NC(=O)c3cccs3)sc2c1	–	inconclusive: 10 µM [inhibitor, single point]
CCC(C(=O)NCc1ccco1)N(C(=O)CNS(=O)(=O)c1ccccc1)C1CCCCC1 (centres undefined)	inactive: -12.8%	–
CCN(CC(=O)Nc1ccc(NC(C)=O)cc1)C(=O)/C=C/c1cccs1	–	inconclusive: 5.62 µM [activator, single point]
COc1ccc(-c2noc(-c3ccccc3C(=O)Nc3cccc(OC)c3)n2)cc1	–	inconclusive: 35.5 µM [inhibitor, single point]

SMILES	activity change, negative = inhibition	Potency
COC(=O)c1sccc1NC(=O)c1sccc1C	–	inconclusive: 3.26 µM [inhibitor, partial curve]
Cc1onc(-c2ccccc2)c1C(=O)Nc1ccccc1NC(=O)c1c(-c2ccccc2)noc1C	inactive: -1.24%	–
Cc1ccc(NC(=O)c2cnc(N3CCN(c4ccccn4)CC3)c3ccccc23)c(Br)c1	–	inconclusive: 3.55 µM [inhibitor, partial curve, poor fit]
O=C(Cn1nnc2ccccc2c1=O)Nc1ccc2c(c1)CCC2	–	inconclusive: 29.1 µM [activator, partial curve, poor fit]
COc1ccc(C(=O)NCCN2CCCC2)cc1[N+](=O)[O-]	–	inconclusive: 1.58 µM [inhibitor, partial curve, poor fit]
Cc1ccccc1OCC(=O)NCCCNC(=O)c1ccco1	–	inconclusive: 17.8 µM [activator, single point]
O=c1[nH]n(-c2cccc3cccnc23)c(=O)c2ccccc12	inactive: 9.37%	–
COC(=O)c1c(C)[nH]c(C(=O)C(C)OC(=O)c2cc(C)oc2C)c1C (centres undefined)	–	inconclusive: 10 µM [inhibitor, partial curve]
CC(C)CC1=NC(C(F)(F)F)(C(F)(F)F)c2c(n(CC(C)C)c(=O)[nH]c2=O)N1	–	inconclusive: 0.562 µM [activator, full curve, poor fit]
O=C(Oc1ccc(OC(=O)N2CCOCC2)cc1)c1ccccc1	inactive: 15.3% [at 46.1 µM]	–
Cc1ccccc1-c1nnc(SCC(=O)N(C)C2CCCCC2)o1	inactive: 8.43% [at 46.1 µM]	–
O=C(CSc1ccc(-c2cccs2)nn1)c1cccs1	inactive: 15.3% [at 46.1 µM]	–
COC(=O)C(NC(=O)c1ccco1)(Nc1nc(C2CC2)cs1)C(F)(F)F (centres undefined)	–	inconclusive: 10 µM [inhibitor, partial curve, poor fit]
CCCNC(=O)c1sc2c(c1C(=O)Nc1ccccn1)CCCC2	–	inconclusive: 35.5 µM [inhibitor, single point]
O=c1c2c(ncn2C2CCCC2)n(Cc2ccccc2)c(=O)n1CCOc1ccc(Br)cc1	inactive: 1.77%	–
C/C=C/c1ccc(OCCCCN2C(=O)NC(C)(C)C2=O)c(OC)c1	–	inconclusive: 0.259 µM [inhibitor, single point]
C/C(=N\NC(=O)CN(c1ccccc1)S(=O)(=O)c1ccccc1[N+](=O)[O-])C(C)(C)C	–	inconclusive: 15.8 µM [inhibitor, single point]

In a second layout: 2 of the compounds above.

| SMILES | activity change, negative = inhibition | Potency |
| --- | --- | --- |
| CCOC(=O)N1CCN(C(=O)C2CCCN(S(=O)(=O)c3ccc(OCC)cc3)C2)CC1 (centres undefined) | – | inconclusive: 1.58 µM [inhibitor, full curve, poor fit] |
| C/C(=N\NC(=O)CN(c1ccccc1)S(=O)(=O)c1ccccc1[N+](=O)[O-])C(C)(C)C | – | inconclusive: 15.8 µM [inhibitor, single point] |

Source: PubChem BioAssay AID540276 (National Center for Advancing Translational Sciences (NCATS), 2011)
